Assay results reported in patent publication US6949553B2, “Aliphatic compounds, their synthesis method, and utilization of the same” (Maruha Corporation, priority 2001, dated 2005).
“Also recorded” adds a separate entry of the source. Some results were stated once for a whole list of compounds, not compound by compound.

Tested on: platelets
Assay: Collagen-induced in vitro platelet aggregation (rabbit PRP, transmittance)
Format: cell-based
Conditions: compared with indomethacin
Description: Collagen-induced in vitro Platelet Aggregation
It was studied whether the compounds of the present invention would inhibit platelet aggregation induced by collagen.
These compounds were each diluted with physiological saline to end concentrations of 1×10^−7M, 3×10^−7M, 1×10^−6M, 3×10^−6M, 1×10^−5M, 3×10^−5M and 1×10^−4M.
Indomethacin was used as a positive control. Indomethacin was dissolved in methanol, and then diluted with physiological saline to end concentrations of 1×10^−6M, 3×10^−6M and 1×10^−5M.
Physiological saline was used as a negative control.
The tube was centrifuged at 900 rpm for 10 minutes at room temperature to separate the supernatant (PRP, platelet rich plasma fraction). The residue was further centrifuged for 15 minutes at 2,500 rpm to obtain the supernatant (PPP, platelet poor plasma fraction). […]
The study substance (20 μl) at a predetermined concentration was added into the cuvette and, 30 seconds later, 20 μl (end concentration 0.2 μg/ml) of collagen (produced by MCM) was added. Subsequent changes in the transmittance were recorded for 5 minutes. […] When aggregation peaked, the transmittance T at maximum aggregation was compared with the transmittance T0 of the negative control, and the aggregation inhibition rate was expressed as percentage using the following equation: Aggregation inhibition rate=(1−T/T0)×100 […]

CC/C=C\C/C=C\C/C=C\C/C=C\C/C=C\C/C=C\CCC(=O)NCCC1CCCN1C (racemic) [Compound 2, (4Z,7Z,10Z,13Z,16Z,19Z)-N-[2-(1-methylpyrrolidin-2-yl)ethyl]docosahexaenoamide]
suppression of collagen-induced platelet aggregation in vitro (in words): suppressed platelet aggregation to practically the same degree as did indomethacin; also recorded: suppressing platelet aggregation in vitro dose-dependently as does indomethacin
